Data source: PubChem BioAssay AID1224830 (NIAID, 2016)

Screen: 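Genes whose knock-down alters the TNF-alpha reporter response to LPS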 (primary screen)
System: human THP-1 monocytic leukaemia cells, TNF dual-luciferase reporter clone, PMA-differentiated to macrophage-like cells
Reagent: siRNA pool against human genes, 50 nM
Timing: LPS for 4 h, given about 3 days after siRNA transfection
Conditions: bacterial LPS (TLR4 ligand), 10 ng/ml
Measured: 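Ratio of firefly to renilla light, scaled to the plate median and expressed as a robust z-score per replicate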
Direction: TNF reporter robust z-score: higher = stronger TNF reporter response to LPS
Rule for the call: 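a well is active when its z-score exceeds 2.8 or falls below -1.5; control wells carry no call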
This is a random part of about 18,000 reagents. Of all reagents, about 2,900 (16%) are marked active. 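Calls are made per well; low scores hint the gene aids the LPS response, high scores that it dampens it.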 Entries without a mark were called inactive. Repeated entries: four replicate wells of each siRNA pool.

SLC20A2
- TNF reporter robust z-score: 2.84 (active)

SLC20A2
- TNF reporter robust z-score: 2.96 (active)

SLC20A2
- TNF reporter robust z-score: 2.26

SLC20A2
- TNF reporter robust z-score: 3.77 (active)

EPS15L1
- TNF reporter robust z-score: 0.12

EPS15L1
- TNF reporter robust z-score: 0.56

EPS15L1
- TNF reporter robust z-score: 0.13

EPS15L1
- TNF reporter robust z-score: 1.45

PRSS38
- TNF reporter robust z-score: -1.3

PRSS38
- TNF reporter robust z-score: -1.65 (active)

PRSS38
- TNF reporter robust z-score: -1.11

PRSS38
- TNF reporter robust z-score: -1.17

CENPU
- TNF reporter robust z-score: -0.01

CENPU
- TNF reporter robust z-score: 2.49

CENPU
- TNF reporter robust z-score: 0.61

CENPU
- TNF reporter robust z-score: 1.07

C8orf44
- TNF reporter robust z-score: -0.98

C8orf44
- TNF reporter robust z-score: -1.91 (active)

C8orf44
- TNF reporter robust z-score: -1.68 (active)

C8orf44
- TNF reporter robust z-score: -0.62

SH3GL3
- TNF reporter robust z-score: -0.62

SH3GL3
- TNF reporter robust z-score: 0.92

SH3GL3
- TNF reporter robust z-score: 1.17

SH3GL3
- TNF reporter robust z-score: 2.02

PCP2
- TNF reporter robust z-score: -0.98

PCP2
- TNF reporter robust z-score: -0.61

PCP2
- TNF reporter robust z-score: -0.26

PCP2
- TNF reporter robust z-score: -0.8

OR4D11
- TNF reporter robust z-score: 1.82

OR4D11
- TNF reporter robust z-score: 1.46

OR4D11
- TNF reporter robust z-score: 3.2 (active)

OR4D11
- TNF reporter robust z-score: 2.49

Reformatted: 3 of the entries above
gene,TNF reporter robust z-score
EPS15L1,0.56
EPS15L1,0.13
EPS15L1,1.45
